In PMC12660843, “Using phage display for rational engineering of a higher-affinity humanized 3’ phosphohistidine-specific antibody” (Communications Chemistry, 2025):
No constants are given. Whether binding was seen depends on the method and setting. Some results given as binding are weak or reduced against the parent protein; the word gives no strength. For some of these results: Tags and fused reporters may be left off the sequences shown. Where no end group is shown, it is not given here. [ ]: non-standard residue; d: D form. The star is where a group is joined. 3‑pTza = 3-phosphotriazolyl alanine (also given as 3-phosphoryl-triazolylalanine); Biotin = O=C1N[C@H]2[C@H](CS[C@H]2CCCCC(=O)*)N1; Ahx = NCCCCCC(=O)O

By UniProt entry, the sequences of proteins in these tests, tags left out. Residues count along the entry.
UniProt P02769, residues 25-607: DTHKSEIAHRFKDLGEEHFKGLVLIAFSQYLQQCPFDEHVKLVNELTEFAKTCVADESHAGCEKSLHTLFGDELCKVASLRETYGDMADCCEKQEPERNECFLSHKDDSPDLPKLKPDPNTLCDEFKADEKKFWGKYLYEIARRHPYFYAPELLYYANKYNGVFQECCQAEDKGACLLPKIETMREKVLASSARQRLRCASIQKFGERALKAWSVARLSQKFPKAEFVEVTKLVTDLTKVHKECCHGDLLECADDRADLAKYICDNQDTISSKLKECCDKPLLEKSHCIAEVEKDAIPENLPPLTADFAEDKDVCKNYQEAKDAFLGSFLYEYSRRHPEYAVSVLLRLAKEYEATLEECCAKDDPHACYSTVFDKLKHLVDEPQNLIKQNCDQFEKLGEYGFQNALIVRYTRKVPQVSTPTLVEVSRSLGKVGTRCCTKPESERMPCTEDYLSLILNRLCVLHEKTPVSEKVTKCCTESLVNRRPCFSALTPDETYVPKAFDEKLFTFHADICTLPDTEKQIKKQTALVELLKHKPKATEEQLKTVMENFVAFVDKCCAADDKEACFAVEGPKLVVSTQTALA

T1: ACLY-pHis peptide (VQFG-pHis-AGAC)
T1 sequence (peptide, phosphohistidine at position 5 of the peptide; biotin): VQFGHAGAC

T2: SCS-pHis peptide (RRMG-pHis-AGAI)
T2 sequence (peptide, phosphohistidine at position 5 of the peptide; biotin): RRMGHAGAI

T3: 3-pHis peptide (Biotin-AminocaproicAcid-A.G.A.G.H.A.G.A.G phosphorylated by phosphoramidate)
T3 construct: His-peptide, phosphorylated on His5; the phosphoramidate reaction gives a mixture of non-phosphorylated, 1-pHis, 3-pHis and di-pHis peptide; also called Biotinylated ACLYana-3-pHis; ACLYana-pHis; source: synthetic peptide, phosphorylated with potassium phosphoramidate; not shown: biotin, N-terminal, kept
T3 peptide: {Biotin-Ahx}-AGAG[3‑pHis]AGAG


Experiments:
[1] = molecular target: T1, ACLY-pHis peptide (VQFG-pHis-AGAC); test: BLI; biotinylated peptides from pHis substrate proteins phosphorylated by phosphoramidate and immobilized on the streptavidin biosensor tip; antibody in solution, its format and concentration not stated; both purified
[2] = molecular target: T2, SCS-pHis peptide (RRMG-pHis-AGAI); test: as above
[3] = molecular target: T3, 3-pHis peptide …; test: as above
streptavidin = streptavidin (UniProt P22629); test: ELISA; polyreactivity ELISA: KLH 5 ug/mL, insulin 1 ug/mL, BSA 1% (w/v), streptavidin 10 ug/mL added to wells; IgG at 100 nM; both purified
BSA (bovine) = BSA (bovine) (UniProt P02769); test: as above

Row | Binder | binding [1] | binding [2] | binding [3] | binding (streptavidin) | binding (BSA (bovine))
1 | hSC44.20 (Fab or IgG not stated, Fig. S17) (antibody, V domains shown) VH: EVQLVESGGGLVQPGGSLRLSCTASGFSIDSYGFSWVRQAPGKGLEHIGYLTAGGRAFYASWAKSRSTITRNTNENTVTLKMNSLRAEDTAVYYCAKLGTGSRFAIWGQGTLVTVSS VL: DIQLTQSPSSLSASVGDRVTITCRASQSVWRNKNVAWYQQKPGKAPKRLIYAIASLYSGVPSRFSGSGSGTDFTLTISSLQPEDFATYYCVGHYGSENDAYYAFGQGTKVEIK | binds | binds | binds | – | –
2 | hSC44.20.N32F^L (Fab or IgG not stated, Fig. S17) (antibody, V domains shown) VH: EVQLVESGGGLVQPGGSLRLSCTASGFSIDSYGFSWVRQAPGKGLEHIGYLTAGGRAFYASWAKSRSTITRNTNENTVTLKMNSLRAEDTAVYYCAKLGTGSRFAIWGQGTLVTVSS VL: DIQLTQSPSSLSASVGDRVTITCRASQSVWRNKFVAWYQQKPGKAPKRLIYAIASLYSGVPSRFSGSGSGTDFTLTISSLQPEDFATYYCVGHYGSENDAYYAFGQGTKVEIK | binds | binds | binds | – | –

Continued, values first:

Row | binding [1] | binding [2] | binding [3] | binding (streptavidin) | binding (BSA (bovine)) | Binder
3 | – | – | – | no binding (tested: IgG at 100 nM) | no binding (tested: IgG at 100 nM) | hSC44.20.N32Y^L IgG (antibody, V domains shown, human IgG1, kappa light chain) VH: EVQLVESGGGLVQPGGSLRLSCTASGFSIDSYGFSWVRQAPGKGLEHIGYLTAGGRAFYASWAKSRSTITRNTNENTVTLKMNSLRAEDTAVYYCAKLGTGSRFAIWGQGTLVTVSS VL: DIQLTQSPSSLSASVGDRVTITCRASQSVWRNKYVAWYQQKPGKAPKRLIYAIASLYSGVPSRFSGSGSGTDFTLTISSLQPEDFATYYCVGHYGSENDAYYAFGQGTKVEIK
4 | – | – | – | no binding (tested: IgG at 100 nM) | no binding (tested: IgG at 100 nM) | hSC44.20.N32F^L IgG (antibody, V domains shown, human IgG1, kappa light chain) VH: EVQLVESGGGLVQPGGSLRLSCTASGFSIDSYGFSWVRQAPGKGLEHIGYLTAGGRAFYASWAKSRSTITRNTNENTVTLKMNSLRAEDTAVYYCAKLGTGSRFAIWGQGTLVTVSS VL: DIQLTQSPSSLSASVGDRVTITCRASQSVWRNKFVAWYQQKPGKAPKRLIYAIASLYSGVPSRFSGSGSGTDFTLTISSLQPEDFATYYCVGHYGSENDAYYAFGQGTKVEIK
